Data: PMC13440570
These are yes or no findings as the source states them, for the method shown. For part of these data: In cells and extracts the contact can be indirect. Sequences can lack the tags named with a protein.

T1: DMC1-BD (yeast two-hybrid fusion) (Arabidopsis thaliana) (UniProt Q39009)
T1 sequence: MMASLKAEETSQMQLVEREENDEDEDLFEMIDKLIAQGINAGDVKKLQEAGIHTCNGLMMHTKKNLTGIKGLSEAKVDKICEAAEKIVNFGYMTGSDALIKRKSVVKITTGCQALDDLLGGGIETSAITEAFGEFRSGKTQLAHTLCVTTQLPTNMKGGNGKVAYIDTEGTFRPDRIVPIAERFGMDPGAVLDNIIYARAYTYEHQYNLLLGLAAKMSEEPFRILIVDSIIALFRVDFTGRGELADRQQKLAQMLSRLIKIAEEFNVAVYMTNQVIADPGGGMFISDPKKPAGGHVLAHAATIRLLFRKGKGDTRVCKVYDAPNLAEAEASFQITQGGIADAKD

T2: SDS^331–578 (yeast two-hybrid fusion) (Arabidopsis thaliana) (UniProt Q1PFW3)
T2 sequence: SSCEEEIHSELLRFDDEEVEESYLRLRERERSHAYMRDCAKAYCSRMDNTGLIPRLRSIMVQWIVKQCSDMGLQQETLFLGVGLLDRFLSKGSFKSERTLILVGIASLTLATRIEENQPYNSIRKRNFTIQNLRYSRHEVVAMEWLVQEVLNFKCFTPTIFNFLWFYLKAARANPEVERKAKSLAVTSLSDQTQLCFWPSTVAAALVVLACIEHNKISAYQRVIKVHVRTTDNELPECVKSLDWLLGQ

T3: SDS^1–330 (yeast two-hybrid fusion) (Arabidopsis thaliana) (UniProt Q1PFW3)
T3 sequence: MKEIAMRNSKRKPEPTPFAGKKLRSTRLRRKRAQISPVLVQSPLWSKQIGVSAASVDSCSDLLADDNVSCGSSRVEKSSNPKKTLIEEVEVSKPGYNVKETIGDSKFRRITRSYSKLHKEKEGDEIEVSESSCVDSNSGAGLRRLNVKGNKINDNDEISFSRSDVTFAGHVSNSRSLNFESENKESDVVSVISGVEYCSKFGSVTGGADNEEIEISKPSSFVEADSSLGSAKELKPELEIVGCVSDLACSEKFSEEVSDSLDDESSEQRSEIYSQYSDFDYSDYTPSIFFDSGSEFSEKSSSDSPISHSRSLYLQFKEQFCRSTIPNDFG

T4: GST-SDS^FL (Arabidopsis thaliana) (UniProt Q1PFW3)
T4 sequence: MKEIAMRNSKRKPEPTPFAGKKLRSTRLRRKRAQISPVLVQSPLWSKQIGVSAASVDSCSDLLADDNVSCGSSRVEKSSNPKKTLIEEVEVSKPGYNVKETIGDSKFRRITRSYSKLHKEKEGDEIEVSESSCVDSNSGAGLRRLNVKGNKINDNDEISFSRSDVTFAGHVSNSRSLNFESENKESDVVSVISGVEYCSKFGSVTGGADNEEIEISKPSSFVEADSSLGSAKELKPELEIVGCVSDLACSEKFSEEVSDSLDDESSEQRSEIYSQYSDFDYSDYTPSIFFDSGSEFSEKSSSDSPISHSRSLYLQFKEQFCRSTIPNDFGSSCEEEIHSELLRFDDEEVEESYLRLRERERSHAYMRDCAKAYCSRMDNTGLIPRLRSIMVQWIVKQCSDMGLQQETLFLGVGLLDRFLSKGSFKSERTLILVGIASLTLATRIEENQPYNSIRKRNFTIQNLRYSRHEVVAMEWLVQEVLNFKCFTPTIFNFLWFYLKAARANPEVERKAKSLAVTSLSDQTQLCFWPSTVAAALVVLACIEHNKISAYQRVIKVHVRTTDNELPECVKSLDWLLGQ

T5: DMC1 (BiFC fusion) (Arabidopsis thaliana) (UniProt Q39009)
T5 sequence: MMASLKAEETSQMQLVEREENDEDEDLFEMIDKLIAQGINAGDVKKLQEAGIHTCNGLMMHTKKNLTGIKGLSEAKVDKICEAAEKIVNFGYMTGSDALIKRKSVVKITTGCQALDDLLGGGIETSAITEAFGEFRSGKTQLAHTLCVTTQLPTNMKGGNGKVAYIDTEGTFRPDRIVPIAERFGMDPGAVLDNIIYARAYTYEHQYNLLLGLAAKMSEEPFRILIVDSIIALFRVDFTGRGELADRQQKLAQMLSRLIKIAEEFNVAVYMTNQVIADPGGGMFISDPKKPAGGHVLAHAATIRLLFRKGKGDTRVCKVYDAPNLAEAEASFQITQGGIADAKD


Experiments:
[1] = target: T1, DMC1-BD (yeast two-hybrid fusion) (Arabidopsis thaliana); assay: two-hybrid; S. cerevisiae AH109, pGADT7-GW and pGBKT7-GW fusions; growth on SD -Leu/-Trp/-His and -Leu/-Trp/-His/-Ade, 28 °C for 3 d
[2] = target: T2, SDS^331–578 (yeast two-hybrid fusion) (Arabidopsis thaliana); assay: as above
[3] = target: T3, SDS^1–330 (yeast two-hybrid fusion) (Arabidopsis thaliana); assay: as above
[4] = target: T4, GST-SDS^FL (Arabidopsis thaliana); assay: pull-down; in vitro pull-down of GST- and HisMBP-tagged proteins (Figure S8); who was held is not told
[5] = target: T5, DMC1 (BiFC fusion) (Arabidopsis thaliana); assay: split reporter; BiFC of ASY1 with DMC1 (Figure S2); system and constructs not given

| Binder | binding [1] | binding [2] | binding [3] | binding [4] | binding [5] |
| --- | --- | --- | --- | --- | --- |
| ASY1-AD (full-length …1, yeast two-hybrid fusion) (protein, UniProt F4HRV8 1-596) MVMAQKLKEAEITEQDSLLLTRNLLRIAIFNISYIRGLFPEKYFNDKSVPALDMKIKKLMPMDAESRRLIDWMEKGVYDALQRKYLKTLMFSICETVDGPMIEEYSFSFSYSDSDSQDVMMNINRTGNKKNGGIFNSTADITPNQMRSSACKMVRTLVQLMRTLDKMPDERTIVMKLLYYDDVTPPDYEPPFFRGCTEDEAQYVWTKNPLRMEIGNVNSKHLVLTLKVKSVLDPCEDENDDMQDDGKSIGPDSVHDDQPSDSDSEISQTQENQFIVAPVEKQDDDDGEVDEDDNTQDPAENEQQLARVKDWINSRHLDTLELTDILANFPDISIVLSEEIMDQLVTEGVLSKTGKDMYIKKRDKTPESEFTFVKEEADGQISPGKSVAPEDYLYMKALYHSLPMKYVTITKLHNMLDGEANQTAVRKLMDRMTQEGYVEASSNRRLGKRVIHSSLTEKKLNEVRKVLATDDMDVDVTETINKTNGPDAKVTADVSTCGGIHSIGSDFTRTKGRSGGMQQNGSVLSEQTISKAGNTPISNKAQPAASRESFAVHGGAVKEAETVNCSQASQDRRGRKTSMVREPILQYSKRQKSQAN | no binding | no binding | no binding | – | – |
| ASY1^301–596 (yeast two-hybrid fusion) (domain or fragment, UniProt F4HRV8 301-596) NEQQLARVKDWINSRHLDTLELTDILANFPDISIVLSEEIMDQLVTEGVLSKTGKDMYIKKRDKTPESEFTFVKEEADGQISPGKSVAPEDYLYMKALYHSLPMKYVTITKLHNMLDGEANQTAVRKLMDRMTQEGYVEASSNRRLGKRVIHSSLTEKKLNEVRKVLATDDMDVDVTETINKTNGPDAKVTADVSTCGGIHSIGSDFTRTKGRSGGMQQNGSVLSEQTISKAGNTPISNKAQPAASRESFAVHGGAVKEAETVNCSQASQDRRGRKTSMVREPILQYSKRQKSQAN | – | no binding | no binding | – | – |
| HisMBP-ASY1^1–300 (domain or fragment, UniProt F4HRV8 1-300) MVMAQKLKEAEITEQDSLLLTRNLLRIAIFNISYIRGLFPEKYFNDKSVPALDMKIKKLMPMDAESRRLIDWMEKGVYDALQRKYLKTLMFSICETVDGPMIEEYSFSFSYSDSDSQDVMMNINRTGNKKNGGIFNSTADITPNQMRSSACKMVRTLVQLMRTLDKMPDERTIVMKLLYYDDVTPPDYEPPFFRGCTEDEAQYVWTKNPLRMEIGNVNSKHLVLTLKVKSVLDPCEDENDDMQDDGKSIGPDSVHDDQPSDSDSEISQTQENQFIVAPVEKQDDDDGEVDEDDNTQDPAE | – | – | – | no binding | – |
| ASY1 (BiFC fusion used in the test with DMC1) (protein, UniProt F4HRV8 1-596) MVMAQKLKEAEITEQDSLLLTRNLLRIAIFNISYIRGLFPEKYFNDKSVPALDMKIKKLMPMDAESRRLIDWMEKGVYDALQRKYLKTLMFSICETVDGPMIEEYSFSFSYSDSDSQDVMMNINRTGNKKNGGIFNSTADITPNQMRSSACKMVRTLVQLMRTLDKMPDERTIVMKLLYYDDVTPPDYEPPFFRGCTEDEAQYVWTKNPLRMEIGNVNSKHLVLTLKVKSVLDPCEDENDDMQDDGKSIGPDSVHDDQPSDSDSEISQTQENQFIVAPVEKQDDDDGEVDEDDNTQDPAENEQQLARVKDWINSRHLDTLELTDILANFPDISIVLSEEIMDQLVTEGVLSKTGKDMYIKKRDKTPESEFTFVKEEADGQISPGKSVAPEDYLYMKALYHSLPMKYVTITKLHNMLDGEANQTAVRKLMDRMTQEGYVEASSNRRLGKRVIHSSLTEKKLNEVRKVLATDDMDVDVTETINKTNGPDAKVTADVSTCGGIHSIGSDFTRTKGRSGGMQQNGSVLSEQTISKAGNTPISNKAQPAASRESFAVHGGAVKEAETVNCSQASQDRRGRKTSMVREPILQYSKRQKSQAN | – | – | – | – | no binding |
| ASY1^1–300 (yeast two-hybrid fusion) (domain or fragment, UniProt F4HRV8 1-300) MVMAQKLKEAEITEQDSLLLTRNLLRIAIFNISYIRGLFPEKYFNDKSVPALDMKIKKLMPMDAESRRLIDWMEKGVYDALQRKYLKTLMFSICETVDGPMIEEYSFSFSYSDSDSQDVMMNINRTGNKKNGGIFNSTADITPNQMRSSACKMVRTLVQLMRTLDKMPDERTIVMKLLYYDDVTPPDYEPPFFRGCTEDEAQYVWTKNPLRMEIGNVNSKHLVLTLKVKSVLDPCEDENDDMQDDGKSIGPDSVHDDQPSDSDSEISQTQENQFIVAPVEKQDDDDGEVDEDDNTQDPAE | – | no binding | no binding | – | – |
